Data as given in PubChem BioAssay AID1259308 (NCATS, 2017).
The deposit covers about 59,000 reagents; below is a part drawn at random. About 1,510 of all reagents (2.6%) were called active. 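Calls use total luciferase alone and ignore viability, so some active siRNAs may act by altering cell number.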 Reagent sequences are not shown.

Test: 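Candidate targets for better recombinant protein yield in mammalian cells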 (primary screen)
System: human HEK293 embryonic kidney cells stably expressing firefly luciferase (HEK-CMV-Luc2-Hygro)
Reagent: single siRNA against human genes, 0.8 pmol siRNA per well
Timing: 72 h
Measurement: 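Luciferase light (ONE-Glo) measured on one replicate plate set and viability (CellTiter-Glo) on the other, scaled to a negative control siRNA, with robust z-scores and luciferase per cell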
Scale: total luciferase, z-score and total luciferase, % of control: higher = more reporter protein produced; luciferase per cell, z-score: higher = more reporter output per viable cell; viable cells, % of control: higher = more viable cells
Rule for the call: 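Active when the median/MAD z-score for overall luciferase is greater than 3; a gene was taken forward for validation with new siRNAs if at least two of its three siRNAs passed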
Calls: active = raised luciferase; inactive = no rise

no.	target	PubChem SID	total luciferase, z-score	total luciferase, % of control	luciferase per cell, z-score	viable cells, % of control	activity call
1	BCL7C (GeneID 9274)	SID160721857	0.252	86.9	0.319	89.3	inactive
2	BCL7C (GeneID 9274)	SID160721858	-0.597	70	-0.449	88.1	inactive
3	BCL7C (GeneID 9274)	SID160721859	-0.0326	81.2	-0.718	110	inactive
4	SCAMP1 (GeneID 9522)	SID160722408	0.741	96.6	0.0746	106	inactive
5	SCAMP1 (GeneID 9522)	SID160722409	0.242	86.7	0.0195	96.4	inactive
6	SCAMP1 (GeneID 9522)	SID160722410	0.79	97.6	-0.181	114	inactive
7	GPR15LG (GeneID 387695)	SID160733186	2.72	136	1.2	111	inactive
8	GPR15LG (GeneID 387695)	SID160765634	1.83	118	2.94	60.9	inactive
9	GPR15LG (GeneID 387695)	SID160765635	-0.947	63	-0.696	84.6	inactive
10	CAMK1G (GeneID 57172)	SID160731589	-2.65	29.2	-3.1	73.8	inactive
11	CAMK1G (GeneID 57172)	SID160745754	-0.05	80.9	-0.388	100	inactive
12	CAMK1G (GeneID 57172)	SID160745755	-0.668	68.6	-0.365	84.4	inactive
13	NCOA4 (GeneID 8031)	SID160719574	0.115	84.2	-0.108	96.8	inactive
14	NCOA4 (GeneID 8031)	SID160719575	1.81	118	1.48	89.3	inactive
15	NCOA4 (GeneID 8031)	SID160719576	0.564	93.1	0.394	93.8	inactive
16	LOC646629 (GeneID 646629)	SID160725960	-0.653	68.9	-0.295	83.2	inactive
17	LOC646629 (GeneID 646629)	SID160725961	-1.32	55.6	-0.92	79.2	inactive
18	LOC646629 (GeneID 646629)	SID160769962	-0.658	68.8	0.0482	75.9	inactive
19	FST (GeneID 10468)	SID160728498	0.372	89.3	0.357	90.8	inactive
20	FST (GeneID 10468)	SID160728499	-0.697	68	-0.885	96	inactive
21	FST (GeneID 10468)	SID160728500	-0.181	78.3	-0.592	102	inactive
22	TFAP2B (GeneID 7021)	SID160717934	3.06	143	2.05	92.9	active
23	TFAP2B (GeneID 7021)	SID160717935	0.0933	83.7	0.0888	91.4	inactive
24	TFAP2B (GeneID 7021)	SID160717936	1.17	105	1.18	86.1	inactive
25	MATCAP1 (GeneID 653319)	SID160770981	2.5	132	3.89	52.7	inactive
26	MATCAP1 (GeneID 653319)	SID160770982	3.15	144	2.42	85.3	active
27	MATCAP1 (GeneID 653319)	SID160770983	0.101	83.9	0.0669	92.1	inactive
28	FABP12 (GeneID 646486)	SID160769904	0.563	93.1	1.53	69.5	inactive
29	FABP12 (GeneID 646486)	SID160769905	-0.21	77.7	-0.242	92.6	inactive
30	FABP12 (GeneID 646486)	SID160769906	-1.02	61.6	-0.649	81.7	inactive
31	WDR81 (GeneID 124997)	SID160756293	0.595	93.7	0.38	94.8	inactive
32	WDR81 (GeneID 124997)	SID160756294	0.592	93.7	0.62	88.9	inactive
33	WDR81 (GeneID 124997)	SID160756296	1.2	106	1.32	83.6	inactive
34	PDIA5 (GeneID 10954)	SID160729612	1.49	112	0.493	110	inactive
35	PDIA5 (GeneID 10954)	SID160729613	-1.53	51.5	-1.45	84.2	inactive
36	PDIA5 (GeneID 10954)	SID160729615	-0.342	75.1	-0.683	100	inactive
37	ZNF319 (GeneID 57567)	SID160746289	0.396	89.8	0.261	93.6	inactive
38	ZNF319 (GeneID 57567)	SID160746290	0.075	83.4	0.0472	92	inactive
39	ZNF319 (GeneID 57567)	SID160746291	-0.923	63.5	-1.22	97.9	inactive
